# Laboratory results: patent US7038020
# Positions count from the first letter of the chain named. No constants are given. Whether binding was seen depends on the method and setting. Binding can be weak; no strength is given.
# B1: Fab clone LD1/2-6-3 (Fab, V domains shown)
# VH: QVKLLESGGGVVQPGGSLRVACVASGFTFRNFGMHWVRQAPGKGLEWVAFIWFDASNKGYGDSVKGRFTVSRDNSKNTLYLQMNGLRAEDTAVYYCAREKAVRGISRYNYYMDVWGKGTTVTVSS
# VL: VMTQSPSSLSASVGDRVTITCRASQSIIRYLNWYQHKPGKAPKLLIHTASSLQSGVPSRFSGSVSGTDFTLTISSLQPEDFATYYCQQSYTTPYTFGQGTKLQIK
# B2: Fab clone LD1/2-6-33 (Fab, V domains shown)
# VH: B1 VH
# VL: B1 VL with S8F, T48A
# Target: Partial D variant DVI (human)
# Experiment: haemagglutination, DVI+ rbc
row,Binder,binding
1,B1,binds
2,B2,binds
